Laboratory results reported in patent US20080138835A1 (priority 2004, published 2008).
At least one compound was matched to its structure with a doubt left.

By UniProt entry, the sequences of proteins in these tests, tags left out. Where a name states a change or a piece, a line headed by the entry shows the natural chain unless it says otherwise. Residues count along the entry.
UniProt P43828: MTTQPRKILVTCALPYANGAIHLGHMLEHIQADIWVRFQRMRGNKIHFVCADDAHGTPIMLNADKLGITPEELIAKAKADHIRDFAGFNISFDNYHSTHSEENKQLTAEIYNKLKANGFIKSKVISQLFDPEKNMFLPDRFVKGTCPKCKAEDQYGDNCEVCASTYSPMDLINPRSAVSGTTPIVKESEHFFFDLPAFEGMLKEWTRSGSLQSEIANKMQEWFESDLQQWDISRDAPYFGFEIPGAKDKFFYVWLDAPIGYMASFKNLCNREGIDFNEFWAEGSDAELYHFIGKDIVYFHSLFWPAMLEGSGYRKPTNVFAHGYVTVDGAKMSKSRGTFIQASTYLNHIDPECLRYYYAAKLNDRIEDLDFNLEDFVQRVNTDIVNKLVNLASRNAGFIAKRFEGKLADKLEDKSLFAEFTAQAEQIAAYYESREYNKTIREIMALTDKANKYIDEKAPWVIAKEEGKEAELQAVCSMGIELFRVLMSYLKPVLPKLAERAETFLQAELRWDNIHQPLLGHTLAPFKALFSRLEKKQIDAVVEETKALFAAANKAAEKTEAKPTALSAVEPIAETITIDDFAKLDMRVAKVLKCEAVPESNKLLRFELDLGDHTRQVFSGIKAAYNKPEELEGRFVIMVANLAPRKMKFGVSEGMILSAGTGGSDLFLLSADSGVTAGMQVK
UniProt A0A8I5ZKR4, 1-910: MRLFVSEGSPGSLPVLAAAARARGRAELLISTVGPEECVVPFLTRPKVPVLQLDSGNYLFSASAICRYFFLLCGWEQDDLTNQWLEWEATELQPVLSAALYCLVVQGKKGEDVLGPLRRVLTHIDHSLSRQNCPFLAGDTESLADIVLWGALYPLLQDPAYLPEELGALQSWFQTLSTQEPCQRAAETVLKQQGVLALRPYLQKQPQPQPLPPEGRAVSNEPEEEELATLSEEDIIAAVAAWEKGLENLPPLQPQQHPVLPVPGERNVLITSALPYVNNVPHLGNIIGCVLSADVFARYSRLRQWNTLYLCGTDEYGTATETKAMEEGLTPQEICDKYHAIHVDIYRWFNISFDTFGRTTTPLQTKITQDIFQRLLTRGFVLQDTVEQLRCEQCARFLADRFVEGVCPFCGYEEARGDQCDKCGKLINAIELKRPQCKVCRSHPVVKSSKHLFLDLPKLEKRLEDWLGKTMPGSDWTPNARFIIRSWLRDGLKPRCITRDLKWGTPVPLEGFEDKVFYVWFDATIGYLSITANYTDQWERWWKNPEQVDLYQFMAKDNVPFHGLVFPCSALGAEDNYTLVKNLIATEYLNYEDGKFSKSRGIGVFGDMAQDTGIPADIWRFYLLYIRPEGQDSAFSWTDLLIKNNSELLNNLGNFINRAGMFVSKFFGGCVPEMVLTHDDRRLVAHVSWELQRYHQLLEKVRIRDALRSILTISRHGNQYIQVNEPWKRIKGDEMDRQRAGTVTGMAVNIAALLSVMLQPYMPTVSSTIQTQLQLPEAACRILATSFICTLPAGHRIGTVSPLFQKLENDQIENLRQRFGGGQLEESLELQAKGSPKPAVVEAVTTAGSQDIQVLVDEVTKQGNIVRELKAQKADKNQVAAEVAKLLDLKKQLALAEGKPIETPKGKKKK
UniProt P00959: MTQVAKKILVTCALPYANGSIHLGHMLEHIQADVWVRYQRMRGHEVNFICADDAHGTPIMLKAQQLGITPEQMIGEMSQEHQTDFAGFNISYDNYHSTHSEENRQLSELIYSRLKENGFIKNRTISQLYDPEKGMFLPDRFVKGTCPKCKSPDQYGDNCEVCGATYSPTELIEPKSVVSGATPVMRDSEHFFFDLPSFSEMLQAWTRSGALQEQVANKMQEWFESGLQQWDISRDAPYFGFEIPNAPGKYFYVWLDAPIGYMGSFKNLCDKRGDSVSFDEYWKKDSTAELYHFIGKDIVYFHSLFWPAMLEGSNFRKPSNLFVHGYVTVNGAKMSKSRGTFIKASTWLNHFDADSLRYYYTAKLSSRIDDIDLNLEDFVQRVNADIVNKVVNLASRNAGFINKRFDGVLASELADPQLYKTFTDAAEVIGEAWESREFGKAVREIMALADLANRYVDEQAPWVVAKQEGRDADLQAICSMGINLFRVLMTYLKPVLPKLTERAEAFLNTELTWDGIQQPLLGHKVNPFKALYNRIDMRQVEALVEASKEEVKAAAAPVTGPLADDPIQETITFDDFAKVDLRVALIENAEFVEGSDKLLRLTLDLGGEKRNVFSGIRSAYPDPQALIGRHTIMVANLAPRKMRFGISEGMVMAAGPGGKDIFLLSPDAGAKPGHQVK
UniProt A2MSJ4, 1-545: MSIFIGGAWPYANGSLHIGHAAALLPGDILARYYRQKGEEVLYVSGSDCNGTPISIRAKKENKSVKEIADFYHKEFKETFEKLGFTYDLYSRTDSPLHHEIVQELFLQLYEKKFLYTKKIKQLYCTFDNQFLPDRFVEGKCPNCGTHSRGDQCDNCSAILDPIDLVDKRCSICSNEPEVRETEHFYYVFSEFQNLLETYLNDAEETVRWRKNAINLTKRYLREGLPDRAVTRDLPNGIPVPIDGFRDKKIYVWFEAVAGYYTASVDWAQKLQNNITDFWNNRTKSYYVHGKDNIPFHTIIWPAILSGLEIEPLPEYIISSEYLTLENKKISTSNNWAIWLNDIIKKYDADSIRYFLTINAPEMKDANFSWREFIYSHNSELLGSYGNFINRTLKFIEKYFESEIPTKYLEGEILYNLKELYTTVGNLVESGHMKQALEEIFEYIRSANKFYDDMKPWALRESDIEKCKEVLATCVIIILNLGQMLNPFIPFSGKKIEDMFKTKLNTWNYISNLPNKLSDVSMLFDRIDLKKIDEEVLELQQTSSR

Tests used:
H influenzae MetG = H influenzae MetG (Haemophilus influenzae, UniProt P43828)
S. pneumoniae R6 = assay type: cell-based; settings: cells treated 10 min; FIG. 2A
[1] = tested on: S. pneumoniae R6 spo rel mutant; assay type: cell-based; settings: rel mutant deficient in stringent response; FIG. 2B
[2] = target: MRS activity present in a rat liver lysate (Rattus norvegicus, UniProt A0A8I5ZKR4); assay type: biochemical; settings: concentrations up to 500 nM
E. coli MetG = E. coli MetG (Escherichia coli, UniProt P00959)
S. pneumoniae MetS2 = S. pneumoniae MetS2 (Streptococcus pneumoniae, UniProt A2MSJ4)

C=C(F)c1sc(CNCCCNc2cc(=O)c3ccccc3[nH]2)c(C)c1Br [Compound 1, N-(4-bromo-5-(1-fluorovinyl)-3-methylthiophen-2-ylmethyl)-N′-(1H-quinolin-4-one)propane-1,3-diamine]
IC50 higher than enzyme concentration used in the assay (H influenzae MetG): 13 fold
protein and RNA synthesis ([3H]leucine and [3H]uridine incorporation) (S. pneumoniae R6): dose-dependent inhibition of protein and RNA synthesis
protein and RNA synthesis ([3H]leucine and [3H]uridine incorporation) [1]: only protein synthesis was affected
inhibition of mammalian MRS activity [2]: No inhibition was observed
IC50 higher than enzyme concentration used in the assay (E. coli MetG): 160 fold
inhibition of S. pneumoniae MetS2 (S. pneumoniae MetS2): resistant to inhibition
